Source: patent US20160046678A1 (ZYNGENIA, published 2016)
Results are given in words; binding and its absence hold for the method and conditions named. Some entries that bind do so weakly or less than the wild type.

T1: TL1A (UniProt O95150)
T1 sequence (looked up): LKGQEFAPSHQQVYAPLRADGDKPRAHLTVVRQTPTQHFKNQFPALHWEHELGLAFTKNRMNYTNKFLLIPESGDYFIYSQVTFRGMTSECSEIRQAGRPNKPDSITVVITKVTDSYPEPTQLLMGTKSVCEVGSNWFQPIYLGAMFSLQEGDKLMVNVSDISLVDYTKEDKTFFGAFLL


Target: EGFR (UniProt P00533)
Assay: peptide screen, Example 48

binding | Binder
binds | YEEHCWLFPTDWICTLVT [EGA1007]
binds | DPYGCYWAAWGRECLLLP [EGA985]
binds | LNDPCYWTTWGKECLLPR [EGA1004]
binds | LPEGCYWATWGKECLLQP [EGA1011]
binds | YSEVCWWEVWGRECFLRS [EGA1002]
binds | LHDGCWWEVWGRECFVPS [EGA998]
binds | IPEGCWWAQWGRECILAA [EGA991]
binds | LPEGCWWANWGRECLLLP [EGA989]
binds | GTDGCWWEVWGRECLLTP [EGA993]
binds | LPEGCWWSVWGRECLLPS [EGA986]
binds | ISDGCFWAVWGRECLLAA [EGA992]
binds | YAEHCWLFPSDWICTLLT [EGA1008]
binds | YEEHCGQFPTDWICTLIS [EGA1005]
binds | HPDGCYWTVWGRECLLPP [EGA1001]
binds | LPEDCWWATWGRECLLQP [EGA987]
binds | DEAGCWWEIWGRECILSP [EGA996]
binds | YEEHCWLFPSDWICTLMT [EGA1006]
binds | FPDVCYWTVWGRECLLLP [EGA999]
binds | LPEDCWWAQWGRECFLPA [EGA1003]
binds | LPEGCHWAIWGRECLLPP [EGA988]
binds | PESWCHTLYWNLQHCLSQE [EGA1010]
binds | LTEPCYWTTWGKECHMPR [EGA995]
binds | LPEGCWWSPWGRECLLPP [EGA994]

Target: T1, TL1A
Assay: peptide selection, Example 48

binding | Binder
binds | MYDVCWDLEVDRLYYCEAPM [TLA142]
binds | GYDVCWDYEEDRLFYCESPL [TLA149]
binds | LEFVCWDDDRGKLVFCAGHM [TLA291]
binds | KYDVCWDDYLDILYYCNGPL [TLA140]
binds | DYDVCWDYDVDRLYYCNFQS [TLA147]
binds | EYAVCWVHSQEKLDWCTGSK [TLA299]
binds | DYDVCWDLNLDRLYYCDSPM [TLA145]
binds | EYALCWVEAQEKLVWCKDLI [TLA296]
binds | EYDVCWDVQNDRLYYCDAPE [TLA146]
binds | DYAVCWDEAQEKLVWCNGLS [TLA298]
binds | NKAVCWNYHQEKLEFCNSTM [TLA294]
binds | TYAVCWDFNAHKLVFCDDMM [TLA295]
binds | HLDVCWDIDLDHLYYCDLGM [TLA141]
binds | DYDVCWDLHLDRLYYCHAYC [TLA136]
binds | DYDVCWDVLVDRLYYCDVPM [TLA135]
binds | DYDVCWDIDADRLYYCHAAM [TLA139]
binds | DYDVCWDIDLDRLYYCDAGS [TLA138]
binds | GHEVCWDMHNEKLVFCRTHI [TLA293]
binds | DYAVCWVEDQGKLVWCNGVN [TLA297]
binds | DYDVCWDLDNDRLFYCDSAM [TLA150]
binds | DYDVCWDVHADRLYYCKEDI [TLA144]
binds | EYDVCWDIDSDRLYLCVGLM [TLA143]
binds | DYDVCWDYKIDHLYYCDGPV [TLA148]
binds | KFHVCWDSHQDKLVYCSLKV [TLA290]

Second part, the binder before the results:

Binder | binding
KLDVCWDLDVDRLYFCDAPM [TLA134] | binds
KTDVCWDLLLDKLYFCDIDT [TLA125] | binds
NYDVCWDVSEDRLYYCDAPR [TLA128] | binds
RWDVCWDYHADKLFFCNEDL [TLA121] | binds
QTFWCYDDWHECSGKP [TLA30] | binds
RDDVCWDYNTDKLYFCGSNI [TLA126] | binds
KCNFNPWKAACG [TLA29] | binds
LLGDCFAGFDNIWCEFLD [TLA26] | binds
DYDVCWDIYEDRLFYCEMHV [TLA133] | binds
DWDVCWDLLEDRLYYCEDPM [TLA129] | binds
DYDVCWDYDVDRLYYCDFPV [TLA127] | binds
EYAVCWDEAQQKLVWCKDLN [TLA131] | binds
LNHSCWWWDEWEECPHNV [TLA34] | binds
EYMYCYDDWYDC [TLA39] | binds
KVEYCYDDWHQCKQVQ [TLA37] | binds
DYDVCWDLDFDRLYYCHPAE [TLA120] | binds
DYDVCWDVDLDRLYYCEAPM [TLA122] | binds
EYEVCWDVHVHRLVFCNVPV [TLA123] | binds
EYDHCWDVSRAKLELCWEHN [TLA130] | binds
DDSMCAWWDEWHECEHHS [TLA38] | binds
